Measured values taken from US20260139066A1 (VRIJE UNIVERSITEIT BRUSSEL, published 2026).
These are yes or no findings as the source states them, for the method shown. A result given as binding can be weak or reduced; the word gives no strength. Where a sequence is shown, tags or fusion partners need not be part of it.

Experiments:
[1] = target: canine urokinase plasminogen activator receptor, recombinant protein (canine); experiment: flow cytometry, 17 nM sdAb + anti-His-PE, c uPAR-transduced HEK293T cells
[2] = target: canine urokinase plasminogen activator receptor, recombinant protein (canine); experiment: BE-ELISA: bacterial extract on coated recombinant uPAR, anti-HA detection, OD405 ratio of coated to uncoated well
[3] = target: canine urokinase plasminogen activator receptor, recombinant protein (canine); experiment: SPR (Biacore T200), c uPAR immobilised on CM5 chip, sdAb injected in three-fold dilutions
[4] = target: canine urokinase plasminogen activator receptor, recombinant protein (canine); experiment: SPR sensorgrams, 150-0.62 nM
[5] = target: canine urokinase plasminogen activator receptor, recombinant protein (canine); experiment: SPR, purified sdAbs on recombinant uPAR

binding [1] | binding [2] | binding [3] | binding [4] | binding [5] | Binder
binds | binds | binds | binds | binds | sdAb 15 (clone 5A4) with carboxy-terminal hexahistidine tag (VHH, Lead compound; C-terminal 6His for purified-protein SPR; koff screen used bacterial extracts of the pMECS-GG construct; also called sdAb15.6His; Nr 15) VHH: QVQLQESGGGWVQPGGSLRLSCAASGFTLDYYGIGWFRQAPGKEREGVSCISSSDGSTYYADSVKGRFTISRDNAKNTVYLQMNSLKPEDTAVYYCATRGASCYYTGSYSLGYDYWGQGTQVTVSS
binds | binds | – | – | binds | sdAb 18 (clone 5H2) with carboxy-terminal hexahistidine tag (VHH, C-terminal 6His for purified-protein SPR; koff screen used bacterial extracts; also called Nr 18) VHH: QVQLQESGGGLAQPGGSLRLSCTASGFTSDYYGIGWFRQAPGKEREGVSCISSSDGSTYYADSVKGRFTISRDNAKNTVYLQMNSLKPEDTAVYYCATRGASCYYTGSYSLGYDYWGQGTQVTVSS
binds | binds | – | – | binds | sdAb 16 (clone 5A5) with carboxy-terminal hexahistidine tag (VHH, C-terminal 6His for purified-protein SPR; koff screen used bacterial extracts; also called Nr 16) VHH: QVQLQESGGGLVQPGGSLRLSCAISGFTLDYYGIGWFRQAPGKEREGVSCISSSDGSTYYADSVKGRFTISRDNAKNTVYLQMNSLKPEDTAVYYCATRGASCYYSGSYSLGYDYWGQGTQVTVSS
binds | binds | – | – | binds | sdAb 17 (clone 5B7) with carboxy-terminal hexahistidine tag (VHH, C-terminal 6His for purified-protein SPR; koff screen used bacterial extracts; also called Nr 17) VHH: QVQLQESGGGLVQPGGSLRLSCAVSGSTLEYYGIGWFRQAPGKEREGVSCISSSDGSTYYADSVKGRFTISRDNAKNTVYLQMNSLKPEDTAVYYCATRGASCYYTGSYSLGYDYWGQGTQVTVSS
